Results deposited as PubChem BioAssay AID686937 (Drosophila RNAi Screening Center, 2013).
In all, the deposit lists about 23,000 reagents; this is a random part of those that have a named target and a result. 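Reduced-secretion tags in replicate 1 do not always agree with the z-scores; no criterion for assigning the tags was given.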 A plus sign joins genes that one reagent is predicted to hit. The record does not give: the amount of reagent.

Screen: 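Knock-downs that reduce output of a secreted reporter enzyme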 (primary screen)
Cell system: Drosophila S2 cells expressing secreted horseradish peroxidase
Reagents: long dsRNA against Drosophila genes
Timing: about 5.5 days (5 days dsRNA, then 12 h reporter induction)
Conditions: reporter expression induced after 5 days of dsRNA, read 12 h later; inducer not stated
Detection: 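After 5 days of dsRNA and 12 h of reporter induction, medium peroxidase read by chemiluminescence and scored as per-plate z-score; higher values mean more reporter released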
Direction: z-score: higher = more reporter secreted into medium

The opening 12 entries as a preview:
no.	gene knocked down	dsRNA	z-score, replicate 1	z-score, replicate 2	z-score, replicate 3	z-score, replicate 4	phenotype, replicate 1
1	alphaTry	DRSC07577	0.32	0.14			
2	ChLD3	DRSC02640	0.08	-0.4			
3	CG2574	DRSC19862	0	-0.31			
4	Or9a	DRSC18692	0.35	0.44			
5	Pex16	DRSC11750	0.19	0.12			
6	ATP8 (retired record)	DRSC21277	0.41	-0.04			
7	CG6236	DRSC15999	0.43	0.45			
8	Hip14	DRSC10570	0.38	0.24			
9	Arf1	DRSC11606	-2.16	-1.48			reduced secretion
10	JMJD7	DRSC09703	0.7	0.94			reduced secretion
11	CG32650	DRSC19899	-0.52	-0.71			
12	CG42827	DRSC16116	0.27	0.02	0.09	0.22	

Results, from the start:
no.	gene knocked down	dsRNA	z-score, replicate 1	z-score, replicate 2	z-score, replicate 3	z-score, replicate 4	phenotype, replicate 1
1	alphaTry	DRSC07577	0.32	0.14			
2	ChLD3	DRSC02640	0.08	-0.4			
3	CG2574	DRSC19862	0	-0.31			
4	Or9a	DRSC18692	0.35	0.44			
5	Pex16	DRSC11750	0.19	0.12			
6	ATP8 (retired record)	DRSC21277	0.41	-0.04			
7	CG6236	DRSC15999	0.43	0.45			
8	Hip14	DRSC10570	0.38	0.24			
9	Arf1	DRSC11606	-2.16	-1.48			reduced secretion
10	JMJD7	DRSC09703	0.7	0.94			reduced secretion
11	CG32650	DRSC19899	-0.52	-0.71			
12	CG42827	DRSC16116	0.27	0.02	0.09	0.22	
13	Prx3	DRSC15883	0.34	0.49			
14	Apoltp	DRSC02508	0.41	0.33			
15	Gr68a	DRSC10803	0.17	0.07			
16	CR40282	DRSC07814	0.13	0.29			
17	RIOK1	DRSC09853	0.25	0.32			
18	l(2)37Cd	DRSC02069	0.06	0.31			
19	ZnT63C	DRSC08032	0.86	0.29			
20	ZnT63C	DRSC08033	0.29	-0.16			
21	ZnT63C	DRSC08519	0.32	0.45			
22	ZnT63C	DRSC21989	6.69	3.4			
23	M7BP	DRSC05053	0.23				
24	M7BP	DRSC05054	0.98				
25	M7BP	DRSC05932	0.35	0.33			
26	M7BP	DRSC06701	0.12	0.2			
27	M7BP	DRSC06816	0.32	0.45			
28	CG15044	DRSC19620	-0.19	-0.81			
29	CG15044	DRSC21385	0.27	-0.4			
30	Mtk	DRSC07475	0.36	0.32			
31	CG9101	DRSC20152	0.66	0.67			
32	dos	DRSC07992	-2.74	-1.53			reduced secretion
33	dos	DRSC08713	-0.21	0.13			
34	mRpL16	DRSC18550	0.5	0.56			
35	COX7A	DRSC16514	-0.42	-0.71			
36	MED6	DRSC16500	-3.35	-2.91			reduced secretion
37	Zdhhc8	DRSC18044	-0.22	-0.86			
38	Zdhhc8	DRSC18122	0.53	0.81			
39	Ubx	DRSC16891	0.22	0.46	0.5	0.29	
40	Cpr47Ec	DRSC07332	0.04	0			
41	gsb	DRSC04692	0.23	-0.05			
42	CG43318	DRSC14999	-0.04	0.3			
43	ATPsynbetaL	DRSC10503	0.16	0.18			
44	Prp16	DRSC19538	-1.54	-0.56			reduced secretion
45	Prp16	DRSC19542	-1.81	-2.22			reduced secretion
46	CG15473	DRSC18056	0.31	0.42			
47	fd59A	DRSC04685	0.2	0.3			
48	CG30058 + CG34235 + CG34312	DRSC05401	-0.19	0.4			
49	blow	DRSC07586	0.35	0.34			
50	Daao2	DRSC02135	0.41	0.26			
51	CG15784	DRSC18090	0.29	-0.1			
52	Dsk	DRSC12347	0.24	0.34			
53	CG14966	DRSC08425	0.18	0.19			
54	Rpp20 + CG33932	DRSC19467	-0.17	0.48			
55	Orc1	DRSC07496	0.76	0.68			
56	Sxl	DRSC18721	0.49	0.62			
57	Sxl	DRSC18722	0.23	0.66			
58	Sxl	DRSC21490	0.04	0			
59	vimar	DRSC05026	-0.3	-0.65			
60	CG14464	DRSC07760	0.14	0.21			
61	bic	DRSC07584	-0.36	-0.53			
62	CG32642	DRSC18959	0.33	0.15			
63	CG7789	DRSC16312	0.28	0.23			
64	Cyp4d2	DRSC18458	0.44	0.21			
65	gcm2	DRSC03538	0.34	0.34			
66	CG9095	DRSC20150	0.25	0.38			
67	caz	DRSC20317	-0.88	0.13	0.25	0.21	reduced secretion
68	caz	DRSC22594	0.12	-0.28			
69	Acox3	DRSC03251	0.7	0.5			
70	Sf3b1	DRSC00535	-4.97	-4.94			reduced secretion
71	Membrin	DRSC10448	-1.52	-0.71			reduced secretion
72	Rap1	DRSC08686	0.07	0.06			
73	CG32305	DRSC08614	0.13	0.3			
74	CG1542	DRSC15035	-0.65	-1.47			
75	CG14760	DRSC06495	0.17	0.19			
76	Grl40a	DRSC03677	-0.16	0.12			
77	Idgf6	DRSC07360	0.33	0.45			
78	CG4709	DRSC02772	0.44	0.41			
79	CG8501	DRSC07198	0.42	0.39			
80	Mst85C	DRSC16746	0.36	0.57			
81	RpL27A	DRSC00781	-5.52	-4.24			reduced secretion
82	gol	DRSC04689	0.16	0.1			
83	CG3505	DRSC15489	0.3	0.26			
84	cass	DRSC01850	0.03	-0.07			
85	Alg7	DRSC02833	0.1	0.08			
86	Alg7	DRSC02834	-0.35	-0.22			
87	Spn38F	DRSC03616	0.4	0.3			
88	CG1671	DRSC06617	0.29	0.41			
89	CG12849	DRSC04129	0.2	0.29			
90	AhcyL1	DRSC08647	0.02	0.08			
91	ND-ACP	DRSC08724	0.03	0.32			
92	ERp44	DRSC20215	0.16	0.39			
93	CG3546	DRSC18308	0.44	0.17			
94	CG33758	DRSC05158	-0.08				
95	GstO2	DRSC10691	0.1	-0.46			
96	CG42808	DRSC06370	-1.32	-1.15			
97	TotC	DRSC13449	0.23	0.19			
98	Cby	DRSC14591	0.19	0.29			
99	eIF2gamma + Su(var)3-9	DRSC13081	-5.63	-5.67			reduced secretion
100	eIF2gamma + Su(var)3-9	DRSC16873	0.42	0.44			
101	mRpS21	DRSC12965	-0.58	0.24			
102	mRpS21	DRSC21357	-1.59	-1.14			reduced secretion
103	CG13476	DRSC10019	0.15	0.36			
104	CG6280	DRSC06972	0.26	0.28			
